Some of the results follow. Many values rest on one well or one pass, so single values are uncertain.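 Cells were imaged in 1,536-well plates, and nuclei stained with an antibody against cleaved PARP were counted against all DNA-stained nuclei to give the apoptosis fraction. Screening doses were chosen to leave most cells alive, and resting and induced cleaved-PARP levels differ strongly between cell lines.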
Legend:
Test in all cases: cleaved PARP positive nuclei fraction relative to DMSO control; melanoma cells; higher = more apoptosis
Conditions in all cases: library dose: low library concentration; 72 h
[1] = system: CBRC034 (line from a melanoma biopsy)
[2] = system: COLO792
[3] = system: COLO800
[4] = system: COLO829
[5] = system: G361
[6] = system: IPC-298
[7] = system: IST-MEL1
[8] = system: LB2518-MEL
[9] = system: LOXIMVI
[10] = system: MZ2-MEL
[11] = system: MeWo
[12] = system: RPMI7951
[13] = system: RVH-421
[14] = system: SkMel28
[15] = system: SkMel30
[16] = system: SkMel5
[17] = system: UACC257
[18] = system: UACC62
[19] = system: MEL-HO
[20] = system: SkMel2

Row | Compound | cleaved PARP positive nuclei fraction [1] [%] | cleaved PARP positive nuclei fraction [2] [%] | cleaved PARP positive nuclei fraction [3] [%] | cleaved PARP positive nuclei fraction [4] [%] | cleaved PARP positive nuclei fraction [5] [%] | cleaved PARP positive nuclei fraction [6] [%] | cleaved PARP positive nuclei fraction [7] [%] | cleaved PARP positive nuclei fraction [8] [%] | cleaved PARP positive nuclei fraction [9] [%] | cleaved PARP positive nuclei fraction [10] [%] | cleaved PARP positive nuclei fraction [11] [%] | cleaved PARP positive nuclei fraction [12] [%] | cleaved PARP positive nuclei fraction [13] [%] | cleaved PARP positive nuclei fraction [14] [%] | cleaved PARP positive nuclei fraction [15] [%] | cleaved PARP positive nuclei fraction [16] [%] | cleaved PARP positive nuclei fraction [17] [%] | cleaved PARP positive nuclei fraction [18] [%] | cleaved PARP positive nuclei fraction [19] [%] | cleaved PARP positive nuclei fraction [20] [%]
1 | C#Cc1cccc(Nc2ncnc3cc(OCCOC)c(OCCOC)cc23)c1 [erlotinib] + COc1ccc(COc2ccc(Cc3cnc(N)nc3N)cc2OC)cc1 [GW2580] (first compound 0.8 µM, partner dose 1 µM) | 61.4 | 103 | 81.8 | 63.5 | 85.4 | 45 | 89.4 | 87.1 | 63.9 | 187 | 205 | 79.2 | 78.7 | 210 | 47 | 55 | 148 | 56.9 | – | –
2 | Cc1nc(Nc2ncc(C(=O)Nc3c(C)cccc3Cl)s2)cc(N2CCN(CCO)CC2)n1 [dasatanib] + COc1ccc(COc2ccc(Cc3cnc(N)nc3N)cc2OC)cc1 [GW2580] (first compound 0.004 µM, partner dose 1 µM) | 136 | 310 | 209 | 115 | 22.9 | 160 | 64 | 96.2 | 49.2 | 98.1 | 80.2 | 127 | 74.3 | 198 | 47.1 | 41.3 | 184 | 83.3 | – | –
3 | Nc1cccc2c1CN(C1CCC(=O)NC1=O)C2=O (stereo not drawn) [lenalidomide] + Oc1cc(-c2nc(-c3ccccc3)[nH]c2-c2ccncc2)ccc1Cl [L779450] (first compound 1 µM, partner dose 0.2 µM) | 81.9 | 118 | 197 | 82 | 183 | 31.7 | 57.8 | 71.4 | 39.9 | – | 76.9 | 90.6 | 138 | 91.2 | 16.5 | 112 | 137 | 70.1 | – | –
4 | C=CCn1c(=O)c2cnc(Nc3ccc(N4CCN(C)CC4)cc3)nc2n1-c1cccc(C(C)(C)O)n1 + Cc1cc([N+](=O)[O-])ccc1NS(=O)(=O)c1cc(Cl)ccc1Cl [FH535] (first compound 0.02 µM, partner dose 1 µM) | 399 | 142 | 123 | 17.9 | 27.8 | 371 | 94.7 | – | 73.5 | – | 164 | 153 | 127 | 79.8 | 404 | 73 | 219 | 373 | – | –
5 | Cn1cncc1[C@@](N)(c1ccc(Cl)cc1)c1ccc2c(c1)c(-c1cccc(Cl)c1)cc(=O)n2C [tipifarnib] + COc1ccc(COc2ccc(Cc3cnc(N)nc3N)cc2OC)cc1 [GW2580] (first compound 0.01 µM, partner dose 1 µM) | 32.2 | 88 | 24 | 54.4 | 117 | 54.9 | 128 | 102 | 125 | 121 | 75.5 | 95.1 | 141 | 89.7 | 19.1 | 185 | 120 | 50.8 | – | –
6 | Cn1nnc2c(C(N)=O)ncn2c1=O [temozolomide] + Cc1cc([N+](=O)[O-])ccc1NS(=O)(=O)c1cc(Cl)ccc1Cl [FH535] (first compound 2 µM, partner dose 1 µM) | 257 | 63.9 | 174 | 143 | 91.5 | 201 | 46.9 | – | 42.2 | – | 162 | 89.6 | 77.2 | 65.2 | 52.5 | 66.9 | 119 | 87.9 | – | –
7 | Cc1nc(Nc2ncc(C(=O)Nc3c(C)cccc3Cl)s2)cc(N2CCN(CCO)CC2)n1 [dasatanib] + Cn1cc(/C=C2\C(=O)Nc3cccnc32)c2ccccc21 [GW441756] (first compound 0.004 µM, partner dose 0.4 µM) | 413 | 157 | 105 | 162 | 141 | 180 | 134 | – | 67.6 | – | 112 | 189 | 125 | 132 | 27.2 | 34.1 | 112 | 70.3 | – | –
8 | NC(=O)Nc1cc(-c2cccc(F)c2)sc1C(=O)N[C@H]1CCCNC1 + N#Cc1c(O)c2c(-c3ccc(-c4ccccc4O)cc3)csc2[nH]c1=O [A769662] (first compound 0.02 µM, partner dose 2 µM) | 80.1 | 161 | 119 | 79.2 | 71.4 | 32 | 170 | – | 52.6 | – | 113 | 83.4 | 37.7 | 130 | 87.3 | 59.5 | 47.3 | 422 | – | –
9 | C=CCNC1=C2C[C@@H](C)C[C@H](OC)[C@H](O)[C@@H](C)/C=C(\C)[C@H](OC(N)=O)[C@@H](OC)/C=C\C=C(/C)C(=O)NC(=CC1=O)C2=O [Tanespimycin] + CC(C)(C)c1cnc(CSc2cnc(NC(=O)C3CCNCC3)s2)o1 [SNS-032] (first compound 0.002 µM, partner dose 0.01 µM) | – | 161 | 117 | 84.9 | 126 | 44.6 | 129 | 121 | 53.9 | 175 | 75.8 | 88.6 | 312 | 109 | 58.1 | 69.9 | 112 | 84.4 | 265 | 144
10 | C[C@]1(c2nc3c(C(N)=O)cccc3[nH]2)CCCN1 [Veliparib] + COc1cc(Nc2ncc(F)c(Nc3ccc4c(n3)NC(=O)C(C)(C)O4)n2)cc(OC)c1OC [Tamatinib] (first compound 1.4 µM, partner dose 0.4 µM) | – | 169 | 77.2 | 221 | 27.9 | 123 | 61.2 | 183 | 151 | 220 | 56.7 | 114 | 87.5 | 311 | 90.6 | 52.2 | 113 | 90.3 | 160 | 61.4

Quoted from the listing.
NC(=O)Nc1cc(-c2cccc(F)c2)sc1C(=O)N[C@H]1CCCNC1 + N#Cc1c(O)c2c(-c3ccc(-c4ccccc4O)cc3)csc2[nH]c1=O [A769662] (first compound 0.02 µM, partner dose 2 µM) – cleaved PARP positive nuclei fraction [14] [%]: 130
C[C@]1(c2nc3c(C(N)=O)cccc3[nH]2)CCCN1 [Veliparib] + COc1cc(Nc2ncc(F)c(Nc3ccc4c(n3)NC(=O)C(C)(C)O4)n2)cc(OC)c1OC [Tamatinib] (first compound 1.4 µM, partner dose 0.4 µM) – cleaved PARP positive nuclei fraction [6] [%]: 123
